We go through 54 compounds from PubChem BioAssay AID1487 (National Center for Advancing Translational Sciences (NCATS), 2009).

This experiment can be described thus: qHTS Assay for Modulators of Lamin A Splicing. The note with it: HeLa LMNA splicing GFP/RFP minigene ratio, 48 h. An outline of the steps:
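S3 HeLa stable clones carrying a lamin A-EGFP splicing minigene plus DsRed2 were seeded at 600 cells/well in Opti-MEM with 2% FBS, pin-dosed and incubated 48 h at 37°C. Acumen cytometry (488 nm) gave the GFP/RFP total-intensity ratio.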

The mark [1] stands for this setting: measured here: RFP viability control channel.
Where [2] appears, read: measured here: GFP splicing reporter channel.

Some of the results follow. The main result of the screen is listed elsewhere. These columns were measured beside it and carry no call. Most of these compounds were active or inconclusive in the main read-out, so they are no random draw. The note in brackets gives the kind of curve behind each potency; many fits are weak.

Regarding `CC(=O)Nc1cc(Cl)c(N=Cc2ccc(O)cc2O)cc1Cl`, the AC50 under setting [1] was 12.6 µM [rising, partial curve, poor fit].

For `CC(=O)Nc1ccccc1C(=O)OCc1ccccc1F`, the AC50 under setting [1] was 0.00316 µM [falling, full curve, poor fit].

As for `CC1(C)C(=O)[C@@H]2OC2[C@@]2(C)C1CC(O)[C@]1(C)C2CC[C@@]2(C)C(c3ccoc3)OC(=O)C3OC312` (some centres not stated), the AC50 under setting [2] is 14.1 µM [rising, single point].

Take `O=C(CC1CCCCC1)c1c(O)c2ccccc2oc1=O`: the AC50 under setting [1] is 20 µM [rising, single point].

For the compound `CC(C)(C)NCC1(CO)SC(N)=NC1=O` (configuration not stated), the AC50 under setting [1] is 12.6 µM [rising, partial curve].

Consider `CSc1ccc(C(=O)C2CCCN(Cc3cc4ccccc4[nH]3)C2)cc1` (configuration not stated), for which the AC50 reads like this: under setting [2], 25.1 µM [falling, partial curve]; under setting [1], 35.5 µM [falling, partial curve].

Turning to `CC(=O)N1N=C2C3CCN(CC3)C2C1c1ccccc1` (configuration not stated), under setting [1], the AC50 was 0.0224 µM [falling, full curve].

As for `CCN1C(=O)c2ccccc2Sc2ccc(NC(=O)Cc3ccc(OC)c(OC)c3)cc21`, under setting [2], the AC50 is 1.26 µM [falling, full curve, poor fit].

Consider `CP(=O)(O)CCCN`, for which the AC50 under setting [1] is 0.141 µM [rising, full curve, poor fit].

As to `C[C@H]1CN(C2CCC(C#N)(c3ccc(F)cc3)CC2)CC[C@@]1(C(=O)O)c1ccccc1` (some centres not stated), under setting [2], the AC50 is 1.41 µM [falling, partial curve, poor fit].

On to `O=c1[nH]c(O)c(N=Nc2cc(C(F)(F)F)ccc2Cl)c(=O)[nH]1`, for which the AC50 under setting [1] was 28.2 µM [rising, partial curve, poor fit].

On to `C[C@@]12CCC(O)C[C@H]1CCC1C2CC[C@]2(C)C(=O)CCC12` (some centres not stated), for which the AC50 under setting [1] was 31.6 µM [rising, single point].

With `CC(C)NC[C@H](O)COc1cccc2[nH]ccc12`, the AC50 under setting [1] was 0.447 µM [rising, partial curve, poor fit].

Consider `CCOC(=O)C1=C(C)OC(N)=C(C#N)C12C(=O)Nc1ccc(C)cc12` (configuration not stated), for which the AC50 was 6.31 µM [falling, single point] under setting [2] and 6.31 µM [falling, single point] under setting [1].

On to `N#Cc1cc2c(nc1SCC(=O)Nc1ccc(OC(F)(F)F)cc1)C1CCN2CC1`, for which the AC50 under setting [1] is 7.08 µM [falling, partial curve, poor fit].

As for `C[C@@H]1O[C@H](O[C@H]2C[C@@H](O)[C@@]3(CO)[C@H]4[C@@H](O)C[C@]5(C)[C@@H](C6=CC(=O)OC6)CC[C@]5(O)[C@H]4CC[C@]3(O)C2)[C@@H](O)[C@H](O)[C@@H]1O`, the AC50 was 0.141 µM [falling, full curve] under setting [2] and 0.141 µM [falling, full curve] under setting [1].

As to `CC(=O)C1=NOC(CNc2ncc(C(F)(F)F)cc2Cl)C1` (configuration not stated), the half-maximal activity concentration (AC50) under setting [2] was 0.0316 µM [rising, full curve] and the AC50 under setting [1] was 0.0501 µM [rising, full curve, poor fit].

`CN1CCc2c(C#N)c(Cl)nc(Cl)c2C1`: the half-maximal activity concentration (AC50) under setting [1] was 14.1 µM [rising, partial curve].

Consider `COC(=O)c1c(C)n(Cc2ccc3c(c2)OCO3)c2ccc(O)cc12`, for which the AC50 under setting [1] is 14.1 µM [rising, partial curve].

As for `Cc1cccn2c(=O)c3cc(C(=O)N4CCC5(CC4)OCCO5)n(C)c3nc12`, the AC50 is 5.62 µM [falling, full curve, poor fit] under setting [2] and 5.01 µM [falling, full curve] under setting [1].

As for `O=C1CN=C(c2ccc(F)cc2)c2oc3ccccc3c2N1`, the AC50 under setting [2] is 0.0141 µM [rising, full curve, poor fit].

For `Cc1ccc(Cn2cccc(C(=O)Nc3cc([N+](=O)[O-])ccc3C)c2=O)cc1`, the AC50 under setting [2] is 0.0178 µM [falling, full curve, poor fit].

As to `COc1ccc(C2=C(C(C)=O)Sc3nnc(-c4ccc(Cl)cc4)n3N2C(C)=O)cc1OC`, the AC50 under setting [2] was 35.5 µM [falling, single point] and the AC50 under setting [1] is 5.62 µM [falling, single point].

As to `OCC(O)CS` (configuration not stated), the AC50 by setting is: under setting [2], 0.00891 µM [falling, full curve, poor fit]; under setting [1], 17.8 µM [falling, partial curve, poor fit].

In the case of `S=C=S`, under setting [1], the AC50 was 0.158 µM [rising, full curve, poor fit].

On to `C#CCOC(=O)C1=CCCN(C)C1`, for which the AC50 is, setting by setting: under setting [2], 0.00447 µM [falling, full curve, poor fit]; under setting [1], 0.00794 µM [falling, full curve, poor fit].

With `COc1ccc(OCC(=O)N2CCN(Cc3cc(=O)n4nc(-c5ccccc5C)sc4n3)CC2)cc1`, the half-maximal activity concentration (AC50) under setting [2] is 35.5 µM [falling, single point].

On to `Nc1ncnc2c1ncn2[C@@H]1O[C@H](COP(=O)(O)CP(=O)(O)OP(=O)(O)O)[C@H](O)[C@H]1O`, for which the AC50 under setting [1] is 15.8 µM [falling, single point].

In the case of `c1ccc(CCCN2CCN(CCOC(c3ccccc3)c3ccccc3)CC2)cc1`, the AC50 is, setting by setting: under setting [2], 25.1 µM [falling, single point]; under setting [1], 17.8 µM [falling, partial curve].

For the compound `O=C(OC1CCN(CCCl)CC1)C(c1ccccc1)c1ccccc1`, the concentration at half-maximal activity (AC50) runs as follows: under setting [2], 11.2 µM [falling, partial curve]; under setting [1], 14.1 µM [falling, partial curve].

Take `NC(=O)C1=CN(C2OC(COP(=O)(O)OP(=O)(O)OC[C@H]3O[C@@H](n4cnc5c(N)ncnc54)[C@H](OP(=O)(O)O)[C@H]3O)C(O)C2O)C=CC1` (some centres not stated): the AC50 under setting [1] was 14.1 µM [rising, single point].

Consider `C[N+]1([O-])[C@@H]2CC[C@H]1CC(OC(=O)[C@@H](CO)c1ccccc1)C2` (some centres not stated), for which the AC50 under setting [2] was 0.891 µM [falling, partial curve, poor fit].

As for `Cc1cc(C=O)c(C)n1C1CC1`, the AC50 under setting [1] was 1.78 µM [rising, full curve, poor fit].

Consider `Cc1ccc(OCCSc2nc3ccc(NC(=O)c4ccc5c(c4)OCO5)cc3s2)cc1`, for which the AC50 reads like this: under setting [2], 12.6 µM [falling, partial curve]; under setting [1], 22.4 µM [falling, partial curve].

Take `CCCCn1c(O)c(C(CC)=Nc2ccc3c(c2)CCC3)c(=O)[nH]c1=O`: the half-maximal activity concentration (AC50) by setting is: under setting [2], 17.8 µM [rising, single point]; under setting [1], 14.1 µM [rising, single point].

As to `CCCCn1c(O)c(C=NCCCN(C)C)c(=O)[nH]c1=O`, the AC50 under setting [1] was 0.141 µM [falling, single point].

Consider `O=C(CCc1nc(C2=CCN(Cc3cccc(Cl)c3)CC2)no1)Nc1ccccc1F`, for which the AC50 reads like this: under setting [2], 3.55 µM [rising, partial curve]; under setting [1], 6.31 µM [rising, partial curve].

Consider `O=C1NC(=O)N(Cc2ccccc2)C(=O)/C1=C\c1ccco1`, for which, under setting [1], the AC50 is 31.6 µM [rising, single point].

As to `CCCn1c(C)c(C(=O)c2ccc3ccccc3c2)c2ccccc21`, the AC50 under setting [2] is 25.1 µM [falling, single point] and the half-maximal activity concentration (AC50) under setting [1] is 14.1 µM [falling, single point].

For `CCn1nc(-c2cccs2)nc2c(=O)n(C)c(=O)nc1-2`, the AC50 reads like this: under setting [2], 3.98 µM [falling, full curve]; under setting [1], 7.08 µM [falling, full curve].

`c1ccc2c(CNC3CCCCC3)c[nH]c2c1`: the AC50 under setting [2] was 28.2 µM [falling, single point] and the AC50 under setting [1] is 1.12 µM [falling, partial curve, poor fit].

`CCCN1CCc2cccc3c2C1Cc1ccc(O)c(O)c1-3` (configuration not stated): the half-maximal activity concentration (AC50) is 15.8 µM [falling, partial curve] under setting [2] and 12.6 µM [falling, partial curve] under setting [1].

On to `c1ccc(C2CC2)c(OCC2=NCCN2)c1`, for which the AC50 runs as follows: under setting [2], 0.00562 µM [rising, full curve, poor fit]; under setting [1], 0.0562 µM [rising, full curve, poor fit].

For the compound `CN1Cc2c(ccc3c2OCO3)C2C(O)Cc3cc4c(cc3C21)OCO4` (configuration not stated), the AC50 was 12.6 µM [falling, partial curve] under setting [2] and 15.8 µM [falling, single point] under setting [1].

As to `COC(=O)CCCNC(=O)CN1CC(c2ccccc2)CC1=O` (configuration not stated), the AC50 under setting [1] was 0.2 µM [rising, partial curve].

Regarding `COc1ccc(N(CC(=O)Nc2cccc(SC)c2)S(C)(=O)=O)cc1Cl`, the AC50 under setting [1] was 3.55 µM [rising, full curve].

Consider `CCC(CO)NC(=O)C1C=C2c3cccc4[nH]cc(c34)CC2N(C)C1` (configuration not stated), for which the AC50 runs as follows: under setting [2], 0.0355 µM [rising, full curve, poor fit]; under setting [1], 6.31 µM [rising, single point].

Consider `CNC(C)(C)Cc1ccccc1`, for which the AC50 by setting is: under setting [2], 0.0126 µM [falling, full curve, poor fit]; under setting [1], 0.00316 µM [falling, full curve, poor fit].

With `OC(O)C(Cl)(Cl)Cl`, the half-maximal activity concentration (AC50) is 0.0158 µM [falling, full curve, poor fit] under setting [2] and 11.2 µM [falling, partial curve, poor fit] under setting [1].

Consider `O=C(CSc1ccccn1)Nc1cccc2ccccc12`, for which the AC50 under setting [1] was 28.2 µM [falling, partial curve, poor fit].

For the compound `COc1ccc(/C=C/c2nc3ccccc3c(=O)n2-c2ccc(C)cc2)cc1O`, under setting [2], the AC50 is 14.1 µM [falling, partial curve, poor fit].

On to `Cc1c(C=O)c2ccccc2n1Cc1ccc(F)cc1`, for which the AC50 under setting [1] is 35.5 µM [falling, single point].

As for `COc1cc2c(cc1OC)CN(c1ccc([N+](=O)[O-])c(C(F)(F)F)c1)CC2`, the AC50 was 35.5 µM [falling, single point] under setting [2] and 35.5 µM [falling, single point] under setting [1].

On to `NP(=O)(Oc1ccccc1Cl)Oc1ccccc1Cl`, for which the AC50 under setting [1] is 0.0316 µM [falling, full curve, poor fit].
